Data on 1 molecule can be found in article PMC10878344 (Journal of Enzyme Inhibition and Medicinal Chemistry, 2024).

For series [1] the following is noted: PAMPA-BBB reported values; ref [35],[36]; cited from earlier work. Background: In PAMPA a lipid-coated filter parts donor from acceptor wells.
Series [2] is described as follows: PAMPA-BBB in vitro blood-brain barrier permeation assay.

In the case of `COc1cc2c(cc1OC)C(=O)C(CC1CCN(Cc3ccccc3)CC1)C2` (stereo not drawn) [Donepezil], the “Pe(ref.)” value in series [1] is given as 10 ± 1 ×10^−6 cm/s. The same molecule had a Papp at 10 h, 25 μg/mL in series [2] (PAMPA, pH 7.4) of 10.1 ± 0.66 ×10⁻⁶ cm/s. For the same molecule, the “CNS (±)” value in series [2] (PAMPA-BBB classification from Pe) is reported as “CNS + (CNS +: (high BBB permeability), Pe (×10^−6 cm/s) > 3.95)”.

Broadly, the Papp is the rate of passage across a membrane or cell layer, normalised by area and donor concentration. Higher therefore signals ready permeation.
